The record followed here is patent US20250129166A1.

Amino acid sequences for entries named in this document (tags omitted). A change or cut given only in a name is not applied to a line headed by its entry.
UniProt Q14242: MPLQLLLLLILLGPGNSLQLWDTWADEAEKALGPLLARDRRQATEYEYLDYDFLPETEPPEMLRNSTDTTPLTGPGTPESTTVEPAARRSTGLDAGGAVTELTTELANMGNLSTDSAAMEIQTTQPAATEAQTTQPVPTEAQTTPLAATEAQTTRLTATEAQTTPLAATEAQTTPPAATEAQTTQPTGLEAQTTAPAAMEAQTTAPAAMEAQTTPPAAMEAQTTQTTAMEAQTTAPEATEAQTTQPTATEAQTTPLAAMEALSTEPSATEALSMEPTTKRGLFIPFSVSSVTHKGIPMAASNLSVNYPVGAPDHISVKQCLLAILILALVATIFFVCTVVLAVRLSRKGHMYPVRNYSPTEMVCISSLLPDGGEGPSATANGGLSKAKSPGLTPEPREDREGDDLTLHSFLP

In this assay the target is T1, human VISTA on cells (endogenous on human monocytes and AML3 cells; ectopic full-length on 293T cells) (human) (UniProt Q9H7M9).
T1 sequence (looked up): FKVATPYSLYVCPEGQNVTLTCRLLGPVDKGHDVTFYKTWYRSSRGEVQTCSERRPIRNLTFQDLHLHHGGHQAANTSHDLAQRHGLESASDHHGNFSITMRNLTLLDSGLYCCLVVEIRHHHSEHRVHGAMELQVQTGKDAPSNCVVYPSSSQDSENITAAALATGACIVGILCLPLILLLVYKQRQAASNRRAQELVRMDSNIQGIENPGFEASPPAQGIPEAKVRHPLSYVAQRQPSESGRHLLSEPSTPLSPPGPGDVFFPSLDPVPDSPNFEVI
The assay can be described thus: cell-based assay, PSGL-1 on 293T cells expressing VISTA, acidic pH.

No constants are given. Whether binding was seen depends on the method and setting. Some results given as binding are weak or reduced against the parent protein; the word gives no strength. Tags and fused reporters may be left off the sequences shown.

B1: human PSGL1 19-mer-huFc (amino-terminal 19 amino acids of mature PSGL1 fused to human Fc) (Fc fusion, UniProt Q14242 42-60, looked up, not shown: a dimerising Fc or GST)
chain: QATEYEYLDYDFLPETEPP
modifications: sulfotyrosine and siayl lewis X carbohydrate post-translational modifications
With B1, the binding result is “binds”.
